Laboratory results published in PubChem BioAssay (NCATS).
The shares of active, inactive and inconclusive entries below differ from those in the screen. Potencies beside an inconclusive call are fits to weak or partial responses and may not hold up. Active and inactive are the calls of the source. Calls follow the shape of the dose curve; as a rule, active = well fitted curve in the direction sought with a large enough effect; inconclusive = small, poorly fitted or top-dose-only effect, or another doubt; inactive = no such curve, though single readings can be large; an effect the other way counts as inactive or inconclusive.

Experiments:
[1] = Quantitative highthroughput screen to assess conditional lethalithy of NOMO1 cells grown in Human Plasma-Like Medium with dialyzed fetal bovine serum (HPLM+ds) (AID 1963878); settings: NOMO1 AML cells in HPLM+ds, CellTiter-Glo viability, 48 h; viability: at 45.8 µM (top of the series); also: nearly all actives have a fitted effect of over 35% in size;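 as to viability: 100% = DMSO wells and 0% = empty wells on each plate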
Summary of the method: (§1)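 Each medium arm—HPLM with 10% dialyzed FBS, or RPMI1640 with 5 mM glucose and 10% untreated or dialyzed FBS—was screened against an 11-point, 3-fold compound titration for 48 h at 37 °C, with CellTiter-Glo luminescence as endpoint.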

[2] = Quantitative highthroughput screen to assess conditional lethalithy of P12 Ichikawa cells grown in RPMI1640 with dialyzed fetal bovine serum (RPMI+ds) (AID 1963880); settings: Potency: P12-Ichikawa viability; also: nearly all actives have a fitted effect of over 35% in size;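 as to viability: 100% = DMSO wells and 0% = empty wells on each plate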
Summary of the method: as §1

[3] = Quantitative highthroughput screen to assess conditional lethalithy of SEM cells grown in RPMI1640 with unreated serum (RPMI+s) (AID 1963883); settings: SEM B-ALL cells, CellTiter-Glo viability, 48 h; viability: at 45.8 µM (top of the series); also: nearly all actives have a fitted effect of over 35% in size;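 as to viability: 100% = DMSO wells and 0% = empty wells without cells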
Summary of the method: as §1

[4] = Quantitative highthroughput screen to assess conditional lethalithy of SEM cells grown in RPMI1640 with dialyzed fetal bovine serum (RPMI+ds) (AID 1963884); settings: SEM B-ALL cells, RPMI+dialyzed FBS, CellTiter-Glo viability, 48 h; viability: at 45.8 µM (top of the series); also: nearly all actives have a fitted effect of over 35% in size;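 as to viability: 100% = DMSO control wells and 0% = empty wells without cells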
Summary of the method: as §1

[5] = Quantitative highthroughput screen to assess conditional lethalithy of P12 Ichikawa cells grown in Human Plasma-Like Medium with dialyzed fetal bovine serum (HPLM+ds) (AID 1963879); settings: Potency: viability; also: nearly all actives have a fitted effect of over 35% in size
Summary of the method: as §1

[6] = Quantitative highthroughput screen to assess conditional lethalithy of SEM cells grown in Human Plasma-Like Medium with dialyzed fetal bovine serum (HPLM+ds) (AID 1963882); also: nearly all actives have a fitted effect of over 35% in size
Summary of the method: as §1

[7] = Quantitative highthroughput screen to assess conditional lethalithy of P12 Ichikawa cells grown in RPMI1640 with untreated serum (RPMI+s) (AID 1963881); settings: Potency: viability; also: nearly all actives have a fitted effect of over 35% in size;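 as to viability: 100% = DMSO wells and 0% = empty wells without cells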
Summary of the method: as §1

[8] = Cellular viability qHTS for adrenocortical cancer (ACC) cell line SW-13 (AID 1963989); settings: SW-13 ACC cells viability, CellTiter-Glo, 48 h; activity (max response): hits give low values; also: nearly all actives have a fitted effect of over 65% in size;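 as to activity (max response): cells grown in serum-free medium with ITS supplement; % is scaled to controls: 0 for no effect and ±100 for the full control effect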
Summary of the method: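 Compound titrations (up to 46 uM final, in DMSO) were applied to SW-13 cells for 48 h at 37C/5% CO2. Reading used CellTiter-Glo after 20 min at room temperature; fitted curves yielded IC50 and efficacy.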

[9] = Cellular viability qHTS for adrenocortical cancer (ACC) cell line NCI-H295R (AID 1963990); settings: CellTiter-Glo ATP luminescence, 48 h; activity change, negative = viability loss: at 46.1 µM (top of the series); also: nearly all actives have a fitted effect of over 60% in size
Summary of the method: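 Readout: CellTiter-Glo luminescence, 20 min RT. Exposure: 48 h, 37C/5% CO2. Cells: NCI-H295R, ITS-DMEM serum-free. Range: up to 46 uM. Analysis: 4PL fit, IC50 plus efficacy.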
Potency is read from the fitted curve at half-maximal effect.

## O=C(c1ccc(F)c(F)c1Nc1ccc(I)cc1F)N1CC(O)([C@H]2CCCCN2)C1
[1]
  Potency: active: 0.526 µM
[2]
  Potency: inconclusive: 10.5 µM [cytotoxic, partial curve]
[3]
  Potency: inconclusive: 18.7 µM [cytotoxic, partial curve]
[4]
  Potency: inconclusive: 13.2 µM [cytotoxic, partial curve]

## C[Se]CCC(N)C(=O)O (stereo unspecified)
[1]
  Potency: inactive
[5]
  Potency: inactive
[6]
  Potency: inconclusive: 0.0024 µM [rising, full curve, poor fit]
[3]
  Potency: inconclusive: 0.0038 µM [rising, full curve, poor fit]
[4]
  Potency: inconclusive: 0.0021 µM [rising, full curve, poor fit]

## CC(=O)O[C@]1(C(C)=O)CC[C@@H]2[C@@H]3C[C@H](C)C4=CC(=O)CC[C@]4(C)[C@H]3CC[C@@]21C
[1]
  Potency: inconclusive: 11.8 µM [cytotoxic, single point]
[7]
  Potency: inconclusive: 4.69 µM [cytotoxic, partial curve, poor fit]
[6]
  Potency: inactive

## NC(=O)c1nnn(Cc2cc(Cl)c(C(=O)c3ccc(Cl)cc3)c(Cl)c2)c1N
[1]
  Potency: inactive
[5]
  Potency: inconclusive: 37.2 µM [cytotoxic, single point]
[7]
  Potency: inconclusive: 33.2 µM [cytotoxic, single point]
[3]
  Potency: inconclusive: 26.4 µM [cytotoxic, single point]
[4]
  Potency: inconclusive: 33.2 µM [cytotoxic, single point]

## C[C@@H]1CCN(C(=O)CC#N)C[C@H]1N(C)c1ncnc2[nH]ccc12
[1]
  Potency: inactive
[2]
  Potency: inactive
[3]
  Potency: inactive
[4]
  Potency: inactive

## Nc1ncn([C@@H]2O[C@H](CO)[C@@H](O)[C@@H]2O)c(=O)n1
[1]
  Potency: active: 16.6 µM
[5]
  Potency: inconclusive: 11.8 µM [cytotoxic, partial curve]
[2]
  Potency: inconclusive: 13.2 µM [cytotoxic, partial curve]
[4]
  Potency: active: 4.69 µM

## O=C(Nc1cccc(Nc2ncc(Br)c(NCCc3cnc[nH]3)n2)c1)N1CCCC1
[1]
  Potency: active: 2.96 µM
[2]
  Potency: inconclusive: 0.935 µM [cytotoxic, full curve]
[7]
  Potency: inconclusive: 0.332 µM [cytotoxic, full curve]
[6]
  Potency: inconclusive: 0.296 µM [cytotoxic, full curve]
[4]
  Potency: inconclusive: 0.235 µM [cytotoxic, full curve]
[8]
  Potency: inconclusive: 3.55 µM [cytotoxic, full curve, poor fit]
[9]
  Potency: inconclusive: 14.1 µM [cytotoxic, partial curve]

## O=C(O)C(=O)Nc1cccc(C2=NN=N[N]2)c1
[1]
  Potency: inactive
[2]
  Potency: inactive

## O=C(CS(=O)Cc1ccco1)NCC=CCOc1cc(CN2CCCCC2)ccn1 (stereo unspecified)
[1]
  Potency: inactive
[5]
  Potency: inactive
[3]
  Potency: inactive

## Nc1nc(=O)n([C@H]2CSC(CO)O2)cc1F (stereo partly specified)
[1]
  Potency: inactive
[2]
  Potency: inconclusive: 11.8 µM [cytotoxic, single point]
[7]
  Potency: inactive
[6]
  Potency: inconclusive: 0.132 µM [rising, full curve]
[3]
  Potency: inactive
[4]
  Potency: inconclusive: 5.26 µM [rising, partial curve, poor fit]

## C[C@@]12C[C@@]3(O)O[C@@H](O1)[C@]1(COC(=O)c4ccccc4)[C@@H]3C[C@@]12O[C@@H]1O[C@H](CO)[C@@H](O)[C@H](O)[C@@H]1O
[1]
  Potency: inconclusive: 11.8 µM [cytotoxic, partial curve]
[5]
  Potency: inconclusive: 18.7 µM [cytotoxic, partial curve, poor fit]
[7]
  Potency: inactive
[3]
  Potency: inactive
[4]
  Potency: inactive

## COc1cc(OC)cc(-c2ccc3ncc4ccc(=O)n(-c5ccc(N6CCNCC6)c(C(F)(F)F)c5)c4c3c2)c1
[1]
  Potency: active: 14.8 µM
[2]
  Potency: inconclusive: 9.35 µM [cytotoxic, partial curve]
[7]
  Potency: inconclusive: 9.35 µM [cytotoxic, partial curve]
[6]
  Potency: active: 14.8 µM
[3]
  Potency: active: 16.6 µM

## CCn1c(C(=O)N(C2CC2)C2CC2)cc2c3c(ncn3C)c(Nc3cc(C)n(C)n3)nc21
[1]
  Potency: inactive
[2]
  Potency: inactive
[6]
  Potency: inconclusive: 16.6 µM [cytotoxic, partial curve]
[4]
  Potency: inconclusive: 14.8 µM [cytotoxic, partial curve]
[8]
  activity (max response): inactive: -6.84%
[9]
  Potency: inconclusive: 35.5 µM [cytotoxic, single point]

## O=C(O)[C@H](CC(=O)N1C[C@@H]2CCCC[C@H]2C1)Cc1ccccc1
[1]
  Potency: inactive
[2]
  Potency: inactive
[6]
  Potency: inactive
[3]
  Potency: inactive

## NC(N)=Nc1nc(CSCCC(N)=NS(N)(=O)=O)cs1
[1]
  Potency: inactive
[2]
  Potency: inactive

## COC(=O)[C@@H]1[C@H]2C[C@@H]3c4[nH]c5ccccc5c4CCN3C[C@@H]2CC[C@@H]1O
[1]
  Potency: inconclusive: 0.743 µM [cytotoxic, full curve]
[2]
  Potency: active: 5.26 µM

## CN(N=O)C(=O)N[C@H]1C(O)OC(CO)[C@@H](O)[C@H]1O (stereo partly specified)
[1]
  Potency: inactive
[5]
  Potency: inconclusive: 11.8 µM [cytotoxic, single point]
[6]
  Potency: inconclusive: 10.5 µM [cytotoxic, full curve]
[3]
  Potency: inconclusive: 10.5 µM [cytotoxic, full curve]
[4]
  Potency: inconclusive: 9.35 µM [cytotoxic, full curve]

## CC(NCc1ccc2c(c1)nc(NC(=O)c1ccc(-c3cn[nH]c3)s1)n2CC(C)(C)O)C(C)(C)C (stereo unspecified)
[1]
  Potency: active: 1.48 µM
[2]
  Potency: active: 2.64 µM
[7]
  Potency: active: 2.64 µM
[6]
  Potency: active: 0.0264 µM
[4]
  Potency: active: 0.0187 µM

## CC=CCC=CCCC(=O)[C@H]1O[C@@H]1C(N)=O
[1]
  Potency: inconclusive: 20.9 µM [cytotoxic, partial curve]
[5]
  Potency: inconclusive: 20.9 µM [cytotoxic, partial curve, poor fit]
[6]
  Potency: inconclusive: 26.4 µM [cytotoxic, single point]
[3]
  Potency: inconclusive: 29.6 µM [cytotoxic, single point]

## COC(=O)Nc1ccc(-c2nc(N3CCOCC3)c3cnn(C4CCN(Cc5cccnc5)CC4)c3n2)cc1
[1]
  Potency: active: 1.05 µM
[5]
  Potency: active: 5.9 µM
[7]
  Potency: active: 0.469 µM
[6]
  Potency: active: 0.662 µM
[4]
  Potency: active: 0.372 µM

## CC(C)(S)[C@@H](N)C(=O)O
[1]
  Potency: inconclusive: 37.2 µM [cytotoxic, single point]
[5]
  Potency: inactive
[7]
  Potency: inactive
[6]
  Potency: inconclusive: 33.2 µM [cytotoxic, single point]
[3]
  Potency: inconclusive: 33.2 µM [cytotoxic, single point]
[4]
  Potency: inconclusive: 37.2 µM [cytotoxic, single point]

## O=C1C(CCC(O)c2ccc(F)cc2)C(c2ccc(O)cc2)N1c1ccc(F)cc1 (stereo unspecified)
[1]
  Potency: inconclusive: 37.2 µM [cytotoxic, single point]
[7]
  Potency: inactive
[3]
  Potency: inactive

## CC[C@H]1OC(=O)[C@H](C)[C@@H](O[C@H]2C[C@@](C)(OC)[C@@H](O)[C@H](C)O2)[C@H](C)[C@@H](O[C@@H]2O[C@H](C)C[C@H](N(C)C)[C@@H]2O)[C@](C)(OC)C[C@@H](C)C(=O)[C@H](C)[C@@H](O)[C@]1(C)O
[1]
  Potency: inactive
[7]
  Potency: inactive
[3]
  Potency: inactive

## CCCCCCCCCCCCCC(=O)N[C@H](CO)[C@H](O)c1ccc([N+](=O)[O-])cc1
[1]
  Potency: active: 1.66 µM
[5]
  Potency: active: 3.72 µM
[4]
  Potency: active: 1.32 µM

## COc1ccc(-c2ccc3c(N4CCOC[C@H]4C)nc(N4CCOC[C@H]4C)nc3n2)cc1CO
[1]
  Potency: inconclusive: 7.43 µM [cytotoxic, partial curve]
[2]
  Potency: inconclusive: 13.2 µM [cytotoxic, partial curve]
[7]
  Potency: inconclusive: 9.35 µM [cytotoxic, partial curve, poor fit]
[6]
  Potency: inconclusive: 3.72 µM [cytotoxic, partial curve, poor fit]
[3]
  Potency: inconclusive: 1.18 µM [cytotoxic, full curve, poor fit]
[4]
  Potency: inconclusive: 3.72 µM [cytotoxic, partial curve, poor fit]

## CCc1cnn2c(NCc3ccc[n+]([O-])c3)cc(N3CCCC[C@@H]3CCO)nc12
[1]
  Potency: active: 0.105 µM
[2]
  Potency: active: 0.118 µM
[4]
  Potency: active: 0.059 µM

## O=C1NC(=O)C(=Cc2ccc3nccnc3c2)S1
[2]
  Potency: inactive
[7]
  Potency: inactive

## CN1CCC[C@H]1CCO[C@](C)(c1ccccc1)c1ccc(Cl)cc1
[7]
  Potency: inactive
[6]
  Potency: inactive

## CON=C(C(=O)N[C@@H]1C(=O)N2C(C(=O)O)=C(Cn3ccc(=N)n3CCO)CS[C@H]12)c1csc(N)n1
[2]
  Potency: inactive

## CC(=O)OCC(=O)[C@@]12N=C(C)O[C@H]1C[C@H]1[C@@H]3CCC4=CC(=O)C=C[C@]4(C)[C@@H]3[C@@H](O)C[C@@]12C
[2]
  Potency: inconclusive: 3.32 µM [cytotoxic, full curve]
[7]
  Potency: inconclusive: 8.33 µM [cytotoxic, partial curve]
[6]
  Potency: inconclusive: 33.2 µM [cytotoxic, single point]

## C=C1C(=CC=C2CCC[C@]3(C)[C@@H]([C@H](C)CCCC(C)(C)O)CC[C@@H]23)C[C@@H](O)C[C@@H]1O
[2]
  Potency: inconclusive: 29.6 µM [cytotoxic, single point]
[7]
  Potency: inconclusive: 20.9 µM [cytotoxic, partial curve]
[3]
  Potency: inconclusive: 23.5 µM [cytotoxic, single point]
[4]
  Potency: inconclusive: 29.6 µM [cytotoxic, single point]
